Reference: paper PMC12431657, “Discovery and mechanistic insights of dibenzoylmethane as a broad spectrum inhibitor of coronavirus” (PLOS Pathogens, 2025)
Counter-ions that a name gives are not always drawn. Like-named read-outs stand apart in the source and are kept apart here. About 95 (3%) of roughly 3,300 compounds showed an effect of 50% or more. Some of the results follow.

Tested on: HCoV-229E
Parameters: species or system Huh-7; HTS, protection from HCoV-229E induced cell death, luminescent cell viability (CellCounting-Lite 2.0), inhibition rate
Settings: 24 h post infection, 1 h compound pre-incubation, 10 µM, inhibitor

SMILES	229E Inhibition rate	229E Inhibition rate (229E Inhibition rate, 24 h)
O=c1cc(-c2ccccc2)oc2c(O)c(O)cc(O)c12 [Norwogonin]	37.2%	
COc1cc([C@@H]2c3cc4c(cc3[C@H](O)[C@H]3COC(=O)[C@@H]23)OCO4)cc(OC)c1OC [Picropodophyllin]	9.2%	
COc1cc(O[C@@H]2O[C@H](CO)[C@@H](O)[C@H](O)[C@H]2O)c2c(O)c(C(C)=O)c(C)cc2c1 [Torachrysone-8-O-b-D-glucoside]	3.9%	
C[C@H]1CC[C@@]2(OC1)O[C@H]1C[C@H]3[C@@H]4CC=C5C[C@@H](O[C@@H]6O[C@H](CO)[C@@H](O)[C@H](O[C@@H]7OC[C@@H](O)[C@H](O)[C@H]7O)[C@H]6O[C@@H]6O[C@@H](C)[C@H](O)[C@@H](O)[C@H]6O)CC[C@]5(C)[C@H]4CC[C@]3(C)[C@H]1[C@@H]2C [Liriope muscari baily saponins C]	31%	
Nc1ncnc2c1ncn2[C@H]1C[C@H](O)[C@@H](CO)O1 [2'-Deoxyadenosine]		3%
COC(=O)[C@]1(C)CC[C@]2(C(=O)O[C@@H]3O[C@H](CO)[C@@H](O)[C@H](O)[C@H]3O)CC[C@]3(C)C(=CC[C@@H]4[C@@]5(C)C[C@H](O)[C@H](O[C@@H]6OC[C@@H](O[C@@H]7O[C@H](CO)[C@@H](O)[C@H](O)[C@H]7O)[C@H](O)[C@H]6O)[C@@](C)(CO)C5CC[C@]43C)[C@H]2C1 (stereo partly drawn) [Esculentoside H]	6.7%	
COc1ccc(-c2cc(=O)c3c(O)c(OC)c(O)c(OC)c3o2)cc1 [Nevadensin]	22.1%	
CC(=O)c1ccccc1O [2'-Hydroxyacetophenone]	38.7%	
NC(=O)CCC(N)C(=O)O (racemic) [DL-Glutamine]	9.3%	
C/C(=C\CNc1ncnc2nc[nH]c12)CO [trans-Zeatin]	11.1%	
CCCCCCO [1-Hexanol]	12.8%	
CC(=O)OC/C1=C/C[C@H]2[C@@H](/C=C(\C)C(=O)[C@@]3(OC(C)=O)C[C@H](C)[C@H](OC(=O)c4ccccc4)[C@@H]3[C@H]1OC(C)=O)C2(C)C [Euphorbia factor L7b]	41.1%	
CCc1c2c(nc3ccc(O)cc13)-c1cc3c(c(=O)n1C2)COC(=O)[C@]3(O)CC [SN-38]	12.5%	
O=c1c(-c2ccc(O)cc2)coc2c([C@@H]3O[C@H](CO[C@@H]4OC[C@@H](O)[C@H](O)[C@H]4O)[C@@H](O)[C@H](O)[C@H]3O)c(O)ccc12 [Puerarin 6''-O-Xyloside]	0%	
O=c1[nH]c2ccccc2c(-c2cccc(O)c2)c1O [Viridicatol]	6.9%	
CC1(C)[C@@H](O[C@H]2O[C@H](C(=O)O)[C@@H](O)[C@H](O)[C@H]2O[C@@H]2O[C@H](C(=O)O)[C@@H](O)[C@H](O)[C@H]2O)CC[C@]2(C)[C@H]3C(=O)C=C4[C@@H]5C[C@@](C)(C(=O)O)CC[C@]5(C)CC[C@@]4(C)[C@]3(C)CC[C@@H]12 [Diammonium Glycyrrhizinate]		0%
C/C(=C\CO)CCC[C@H](C)CCC[C@H](C)CCCC(C)C [Phytol]	25.6%	
CC1(C)[C@@H](O[C@@H]2O[C@H](C(=O)O)[C@@H](O)[C@H](O)[C@H]2O[C@@H]2O[C@H](C(=O)O)[C@@H](O)[C@H](O)[C@H]2O)CC[C@]2(C)[C@H]3C(=O)C=C4[C@@H]5C[C@](C)(C(=O)O)CC[C@]5(C)CC[C@@]4(C)[C@]3(C)CC[C@@H]12 [Licorice-saponin H2]	21.2%	
C[C@@H](CO[C@@H]1O[C@H](CO)[C@@H](O)[C@H](O)[C@H]1O)[C@@H]1CC[C@@]2(CC[C@]3(C)[C@H](CC[C@@H]4[C@@]5(C)CC[C@H](O[C@@H]6O[C@H](CO)[C@@H](O)[C@H](O)[C@H]6O[C@@H]6OC[C@@H](O)[C@H](O)[C@H]6O)[C@@](C)(CO[C@@H]6O[C@H](CO)[C@@H](O)[C@H](O)[C@H]6O)[C@@H]5CC[C@]43C)[C@H]2O)CO1 [Hosenkoside M]	10.1%	
O[C@H]1CCN2Cc3ccccc3N=C12 [Vasicine (hydrochloride)]	10.9%	
C[C@H]1[C@H](C)CC[C@]2(C(=O)O[C@@H]3O[C@H](CO[C@@H]4O[C@H](CO)[C@@H](O[C@@H]5O[C@@H](C)[C@H](O)[C@@H](O)[C@H]5O)[C@H](O)[C@H]4O)[C@@H](O)[C@H](O)[C@H]3O)CC[C@]3(C)C(=CC[C@@H]4[C@@]5(C)C[C@@H](O)[C@H](O)[C@@](C)(CO)[C@@H]5[C@H](O)C[C@]43C)[C@H]12 [Madecassoside]	48.9%	
COc1cc2c(cc1OC)-c1cc3ccc(OC)c(OC)c3c[n+]1CC2 [Palmatine (hydroxide)]		0%
COc1cc(CCC(O)CCCCc2ccccc2)ccc1O (stereo not drawn) [Oxyphyllacinol]	0%	
Cn1c(=O)[nH]c2ncn(C)c2c1=O [Paraxanthine]	35.2%	
CC(=O)Nc1ccn([C@@H]2O[C@H](COP(=O)(O)OP(=O)(O)OP(=O)(O)O)[C@@H](O)[C@H]2O)c(=O)n1 [N4-Acetylcytidine triphosphate (sodium)]	10.2%	
C/C=C(\C)C(=O)OC1c2c(ccc3ccc(=O)oc23)OC(C)(C)C1OC(=O)/C(C)=C/C (stereo not drawn) [Praeruptorin B]	53.9%	

SMILES	229E Inhibition rate	229E Inhibition rate (229E Inhibition rate, 24 h)
C=CCSSSCC=C [Diallyl Trisulfide]	13.2%	
CC(=O)O[C@@H]1CC[C@@]2(C)[C@@H](CC[C@]3(C)[C@@H]2CC=C2[C@@H]4[C@@H](C)[C@H](C)CC[C@]4(C)CC[C@]23C)[C@@]1(C)C(=O)O [3-Acetyl-beta-boswellic acid]	8.3%	
COc1cc(C2Oc3ccc([C@H]4Oc5cc(O)cc(O)c5C(=O)[C@@H]4O)cc3OC2CO)ccc1O (stereo partly drawn) [Isosilybin]	0%	
COc1ccc(-c2cc(=S)ss2)cc1 [Anethole trithione]	32.8%	
C=C1CCOC1=O [Tulipalin A]	15.3%	
CC(CC(=O)CC(C)(O)[C@H]1CC(=O)[C@@]2(C)C3=C(C(=O)C[C@]12C)[C@@]1(C)CCC(=O)C(C)(C)[C@@H]1C[C@@H]3O)C(=O)O (stereo partly drawn) [Ganoderic acid N]	14.9%	
COc1cc(CNC(=O)CCCCCCCC(C)C)ccc1O [Homodihydrocapsaicin I]	33%	
C=CCSC[C@H](N)C(=O)O [S-Allyl-L-cysteine]	13.2%	
O=c1cc(CO)occ1O [Kojic acid]	0%	
COc1ccc(-c2coc3c([C@@H]4O[C@H](CO)[C@@H](O)[C@H](O)[C@H]4O)c(O)ccc3c2=O)cc1 [4'-Methoxypuerarin]	9.3%	
NC(=O)[C@@H](N)Cc1c[nH]c2ccccc12 [H-Trp-NH2.HCl]	38.8%	
C1=C2CCCN[C@H]2[C@@H]2C[C@H]1[C@H]1CCCCN1C2 [Aloperine]	8.6%	
C[C@]12C[C@@H](O)[C@@H]3C[C@@]1(O[C@@H]1O[C@H](CO)[C@@H](O)[C@H](O)[C@H]1O)[C@]3(COC(=O)c1ccccc1)C(=O)O2 [Albiflorin]	13.1%	
O=C(O)CCCC(=O)O [Glutaric acid]	19.3%	
CC[C@H]1CN2CC[C@]3(C(=O)Nc4ccccc43)[C@@H]2C[C@@H]1/C(=C\OC)C(=O)OC [Rhynchophylline]	10.8%	
CC1(C)C=Cc2c(ccc(C(=O)/C=C/c3ccc(O)cc3)c2O)O1 [Isobavachromene]		41.7%
NCCCNCCCCNCCCN [Spermine]	12.9%	
C[C@H]1O[C@@H](O[C@H]2CC[C@@]3(C)[C@@H](CC[C@]4(C)[C@@H]3C=CC3=C5CC(C)(C)CC[C@]5(CO)[C@H](O)C[C@]34C)[C@]2(C)CO)[C@H](O)[C@@H](O[C@@H]2O[C@H](CO)[C@@H](O)[C@H](O)[C@H]2O)[C@H]1O [Saikosaponin B2]	0%	
COc1ccc(C(=O)O)c(O)c1 [2-Hydroxy-4-methoxybenzoic acid]	14%	
COc1ccc(-c2coc3cc(OC)ccc3c2=O)cc1 [4',7-Dimethoxyisoflavone]	12.4%	
CSCC[C@H](NC(=O)[C@H](CC(C)C)NC(=O)CNC(=O)[C@H](Cc1ccccc1)NC(=O)[C@H](Cc1ccccc1)NC(=O)[C@H](CCC(N)=O)NC(=O)[C@H](CCC(N)=O)NC(=O)[C@@H]1CCCN1C(=O)[C@H](CCCCN)NC(=O)[C@@H]1CCCN1C(=O)[C@@H](N)CCCN=C(N)N)C(N)=O [Substance P]	0%	
O=C(O[C@@H]1Cc2c(O)cc(O)cc2O[C@@H]1c1cc(=O)c(O)c2c(O)c(O)cc([C@H]3Oc4cc(O)cc(O)c4C[C@H]3O)c2c1)c1cc(O)c(O)c(O)c1 [Theaflavin-3'-gallate]		18.5%
CC(C)=CCC/C(C)=C/CC/C(C)=C/CC/C=C(\C)CC/C=C(\C)CCC=C(C)C [Squalene]	15.7%	
O=C(O)Cc1c[nH]c2ccc(O)cc12 [5-Hydroxyindole-3-acetic acid]	11.8%	
C[C@@H]1O[C@@H](O[C@H]2[C@H](O)[C@@H](O)[C@H](O[C@H]3CC[C@]4(C)[C@H]5C=C[C@]67OC[C@@]8(CCC(C)(C)C[C@H]86)[C@@H](O)C[C@@]7(C)[C@]5(C)CC[C@H]4C3(C)C)O[C@@H]2CO[C@@H]2O[C@H](CO)[C@@H](O)[C@H](O)[C@H]2O)[C@H](O)[C@H](O)[C@H]1O [Saikosaponin C]	0%	

Looked up one by one from the entries so far (3):
SMILES	229E Inhibition rate	229E Inhibition rate (229E Inhibition rate, 24 h)
O[C@H]1CCN2Cc3ccccc3N=C12 [Vasicine (hydrochloride)]	10.9%	
COc1cc(CNC(=O)CCCCCCCC(C)C)ccc1O [Homodihydrocapsaicin I]	33%	
NC(=O)[C@@H](N)Cc1c[nH]c2ccccc12 [H-Trp-NH2.HCl]	38.8%	
